Record: PubChem BioAssay AID1259308 (NCATS, 2017)
Purpose: 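Candidate targets for better recombinant protein yield in mammalian cells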 (primary screen). Cells: human HEK293 embryonic kidney cells stably expressing firefly luciferase (HEK-CMV-Luc2-Hygro). Knock-down reagent: single siRNA against human genes, 0.8 pmol siRNA per well. Duration: 72 h. Read-out: 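Luciferase light (ONE-Glo) measured on one replicate plate set and viability (CellTiter-Glo) on the other, scaled to a negative control siRNA, with robust z-scores and luciferase per cell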. Reading the numbers: total luciferase, z-score: higher = more reporter protein produced. Active means: 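An siRNA counts as active if its total luciferase robust z-score exceeds 3; genes with two or more such siRNAs out of three were retested with fresh siRNAs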. Meaning of the calls: active = raised luciferase; inactive = no rise.
Here is one part, drawn at random, of about 59,000 reagents tested. In the full data, about 1,510 (2.6%) are marked active. 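Calls use total luciferase alone and ignore viability, so some active siRNAs may act by altering cell number.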 A number with no mark means an inactive call. Reagents against one gene are numbered here. Not all columns of the deposit are shown.

SPAM1 (sperm adhesion molecule 1) #1
- total luciferase, z-score: -0.344

SPAM1 (sperm adhesion molecule 1) #2
- total luciferase, z-score: 0.458

SPAM1 (sperm adhesion molecule 1) #3
- total luciferase, z-score: 0.437

LINC00304 (long independently transcribed non-coding RNA 304) #1
- total luciferase, z-score: -0.488

LINC00304 (long independently transcribed non-coding RNA 304) #2
- total luciferase, z-score: -0.571

LINC00304 (long independently transcribed non-coding RNA 304) #3
- total luciferase, z-score: -1.18

PRH1 (proline rich protein HaeIII subfamily 1) #1
- total luciferase, z-score: 2.13

PRH1 (proline rich protein HaeIII subfamily 1) #2
- total luciferase, z-score: -1.9

PRH1 (proline rich protein HaeIII subfamily 1) #3
- total luciferase, z-score: -0.952

DRC12 (dynein regulatory complex subunit 12 homolog) #1
- total luciferase, z-score: -0.352

DRC12 (dynein regulatory complex subunit 12 homolog) #2
- total luciferase, z-score: -0.446

DRC12 (dynein regulatory complex subunit 12 homolog) #3
- total luciferase, z-score: 0.882

ANXA13 (annexin A13) #1
- total luciferase, z-score: 0.0431

ANXA13 (annexin A13) #2
- total luciferase, z-score: 3.13 (active)

ANXA13 (annexin A13) #3
- total luciferase, z-score: -1.11

CAMK2N2 (calcium/calmodulin dependent protein kinase II inhibitor 2) #1
- total luciferase, z-score: -1.04

CAMK2N2 (calcium/calmodulin dependent protein kinase II inhibitor 2) #2
- total luciferase, z-score: 0.569

CAMK2N2 (calcium/calmodulin dependent protein kinase II inhibitor 2) #3
- total luciferase, z-score: -0.998

KCNMA1 (potassium calcium-activated channel subfamily M alpha 1) #1
- total luciferase, z-score: 0.91

KCNMA1 (potassium calcium-activated channel subfamily M alpha 1) #2
- total luciferase, z-score: 2.06

KCNMA1 (potassium calcium-activated channel subfamily M alpha 1) #3
- total luciferase, z-score: 1.78

2 successive reagents already listed:
DRC12 (dynein regulatory complex subunit 12 homolog) #3
- total luciferase, z-score: 0.882

ANXA13 (annexin A13) #1
- total luciferase, z-score: 0.0431
